Assay results taken from patent publication US7208157B2 (California Institute of Technology, priority 2000, dated 2007).

Assay: peptide synthesis
Settings: conjugation step

Question: Which conjugation yield does the source give for IB peptide-suberate-Gly-DHT here?
Answer: The conjugation yield was 51%.
